Measurements published in article PMC7090004, “IL28A protein homotetramer structure is required for autolysosomal degradation of HCV-NS5A in vitro” (Cell Death & Disease, 2020).
These are yes or no findings as the source states them, for the method shown. Binding seen in cells or lysates may run through a third protein. Some binding calls cover weakened binding; strength is not graded here.

Chains of the proteins cited; added tags and fusions are not shown. Residues count along the entry.
UniProt P13473, residues 29-410: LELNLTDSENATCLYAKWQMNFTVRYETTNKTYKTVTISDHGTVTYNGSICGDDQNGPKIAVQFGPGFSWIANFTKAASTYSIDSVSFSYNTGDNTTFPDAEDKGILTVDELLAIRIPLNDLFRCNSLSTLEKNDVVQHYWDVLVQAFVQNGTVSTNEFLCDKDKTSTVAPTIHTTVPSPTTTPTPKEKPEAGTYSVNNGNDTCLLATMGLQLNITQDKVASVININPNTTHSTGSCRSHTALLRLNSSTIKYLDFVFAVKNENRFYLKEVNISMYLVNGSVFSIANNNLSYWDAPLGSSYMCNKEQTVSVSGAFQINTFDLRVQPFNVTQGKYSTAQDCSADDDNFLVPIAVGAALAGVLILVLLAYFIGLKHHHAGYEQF

Key:
Experiment in all cases: co-IP
[1] = target: HCV NS5A protein (Hepatitis C virus, J4L6S (1b)) (UniProt O92972)
[2] = target: LAMP2 (human (endogenous in HepG2)) (UniProt P13473)
[3] = target: p62 (human (endogenous in HepG2)) (UniProt Q13501)

Question: Which binding [1] does the source give for p62 (from UniProt Q13501 1-440) here?
Answer: Its binding is “binds”.

Question: What about the binding [2] of the same molecule?
Answer: Its binding is “binds”.

B1: Interferon lambda-2 (IL28A), wild type (natural protein, human, UniProt Q8IZJ0 26-200, looked up)
chain: VPVARLHGALPDARGCHIAQFKSLSPQELQAFKRAKDALEESLLLKDCRCHSRLFPRTWDLRQLQVRERPMALEAELALTLKVLEATADTDPALVDVLDQPLHTLHHILSQFRACIQPQPTAGPRTRGRLHHWLYRLQEAPKKESPGCLEASVTFNLFRLLTRDLNCVASGDLCV
notes: also called WT IL28A; IL28A overexpression construct
Question: What does the source list for B1?
Answer: binding [3]: binds; binding [1]: binds; binding [2]: binds
